The values that follow come from the supplement of paper PMC3334620.

The full ranking holds about 33,000 sequences; the median of “E-score (-0.5 to 0.5)” is about -0.0014, and the highest 2% start at about 0.25. The list shows a part of the results.

The experiment deals with T1, Cad1 (UniProt P24813).
T1 sequence: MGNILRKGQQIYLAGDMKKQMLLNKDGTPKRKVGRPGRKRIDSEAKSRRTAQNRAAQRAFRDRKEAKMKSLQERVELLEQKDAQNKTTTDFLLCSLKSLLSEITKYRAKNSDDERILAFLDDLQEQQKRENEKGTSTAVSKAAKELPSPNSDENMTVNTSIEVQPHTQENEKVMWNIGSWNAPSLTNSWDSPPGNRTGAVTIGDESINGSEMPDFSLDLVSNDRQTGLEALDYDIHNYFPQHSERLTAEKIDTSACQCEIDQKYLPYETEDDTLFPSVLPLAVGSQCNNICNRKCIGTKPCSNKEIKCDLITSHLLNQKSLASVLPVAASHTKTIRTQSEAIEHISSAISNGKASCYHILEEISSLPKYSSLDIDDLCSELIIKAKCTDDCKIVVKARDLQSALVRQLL
Put plainly: PBM E-score (8-mer binding enrichment) (E-score (-0.5 to 0.5)); higher = stronger / more preferred TF binding. To be noted: protein concentration: 100 nM; construct: GST-full length. Summed up:
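For each ungapped eight-base word taken together with its reverse complement, the Universal PBM Analysis Suite assigned an E-score. Binding data came from GST-tagged yeast transcription factors, applied at about 100-200 nM, on universal all-10-mer Agilent arrays made double-stranded by primer extension. Fluorescent anti-GST marked bound protein, and scans were normalised with masliner.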
As for AGTCCCAA, the “PBM E-score” value was -0.0249.
Consider ATATGAAC, for which the “PBM E-score” value worked out at 0.12.
Turning to CCAGTGAC, the “PBM E-score” value was -0.0698.
Next, ACCGGCAT: 0.0745; CAGATTGG: -0.207; GTCACGGA: 0.0544.
For AGAGAGCG the value was -0.166; for CACCAAGC, -0.113; for ATGGGGGC, -0.349.
Consider CAGTCCCC, for which the “PBM E-score” value is -0.294.
Next, GGTCTGTA: 0.0314; AAGATACA: 0.187; AAGAAGTA: 0.12.
For ATATGGGG the value was -0.0624.
For GTACGGCA the value was -0.0302; for GCGGACCC, -0.221; for CAACGGAA, 0.22.
Turning to CACAAATG, the “PBM E-score” value was -0.0179.
In the case of ACTAGACG, the “PBM E-score” value is -0.0634.
For CTCGCACC the value was -0.0697; for AACCAGGC, -0.107; for TCGTGAGA, -0.0047.
Take TCAAGTCA: the “PBM E-score” value came to 0.053.
For AAAGGCGC the value was 0.0944; for GTCCGGCA, 0.0478; for ATTAAAAA, 0.221.
On to AGGCAACC, for which the “PBM E-score” value was 0.056.
With GTCTGAAC, the “PBM E-score” value stood at 0.0267.
For AAGAATTC the value was 0.0649; for ACGTTTTC, 0.00043.
Next, AAGGCGAA: -0.153; CGTACCTC: -0.187.
Next, ATTCGGCG: 0.096; AGGCGTAT: 0.102.
In the case of AAATGAGC, the “PBM E-score” value is 0.0153.
For ATATCCAC the value was 0.0501.
Regarding ACATGGGG, the “PBM E-score” value was -0.185.
Next, CCCGGCGG: -0.198; CGTCGTCC: -0.0843.
For GCTAACAC the value was 0.0749.
With CAACGCAA, the “PBM E-score” value came to 0.0609.
For GGCGAACA the value was -0.0067; for AGCCTCCT, -0.12; for ACCCTAGG, -0.0422.
For AATGGCTA the value was 0.0612; for CCCATAAG, -0.112; for AGGCGAGC, -0.0654.
For CACCGACG the value was -0.0612.
For the sequence GTTAGCAA, the “PBM E-score” value stood at 0.0595.
Next, GGGTATGA: 0.113.
Next, CCAAAAGA: 0.0811.
With CCAACCGG, the “PBM E-score” value was -0.0891.
As to AGTTCCTC, the “PBM E-score” value is -0.0528.
TGGACCAA: the “PBM E-score” value was determined as 0.0182.
For ATAGACAC the value was -0.0255; for CACCATCC, -0.223.
For AGATTGCT the value was -0.137; for CATCACAC, 0.14; for AGATACAC, 0.176.
Regarding ACCGGGCT, the “PBM E-score” value is -0.199.
For GATTCGAA the value was 0.241.
For GCCGATCA the value was 0.0125; for ACTAATTA, 0.377.
For CATGCAGG the value was -0.124; for CTTCGCCC, -0.322; for AGTGATGC, -0.0338.
Consider GTTGAATA, for which the “PBM E-score” value is 0.0812.
Next, AAATCAGC: 0.239.
Next, GAACAATC: 0.0607; ATGCACTC: -0.114.
For ACAGATAG the value was 0.0169; for CCCCGCCC, 0.114; for AACTTCTC, 0.0154.
Consider CCGATTTC, for which the “PBM E-score” value turned out to be 0.0377.
For ATACCAAA the value was 0.0574; for AACAGTAT, 0.0636; for ACTTATGG, -0.186.
Next, CCATTGAG: 0.00757; GCTGGGTA: -0.235; CTTGAGAA: -0.0624.
Next, GGAGTTTA: 0.0863; AACGTTCC: -0.0424; ATTTCGTA: 0.138.
Regarding AAAGTTAA, the “PBM E-score” value is 0.18.
For GTTGCCTA the value was -0.0749.
Next, CTGCCGCC: -0.179.
